# Measured values as given in patent publication US10591497B2, “Immunoassay for synthetic cannabinoids of the adamantyl indazole/indole-3-carboxamide family” (Randox Laboratories Limited, priority 2014, dated 2020).
# Tested on: antibody derived from Immunogen of Example 9
# Assay: Competitive immunoassay (ELISA), IC50 derivation and cross-reactivity
# Assay type: binding, sheep
# Protocol: All cross-reactivity are measured herein under the experimental conditions of Example 12 and compared to 100% for AKB48.
# IgG is extracted from the antisera and immobilised on a 96 well ELISA plate (coated for 2 hours at +37° C. at 10 ug/ml in a Phosphate Buffered Saline pH7.2). Unbound material is removed by washing with Tris Buffered Saline (TBS) containing tween ([…]) over 10 minutes. Standard AKB48 is added at the concentrations quoted in Table 1, followed by detection agent 1 (FIG. 2) at 1/140 k in a dilution buffer. After incubation (60 mins) at +15 to +25° C. to allow a competition reaction to take place, the microtitre plate is washed with TBS containing Tween™ to remove excess reagents. The enzyme substrate […] (125 μl) is added (Kem-en-Tec Cat. No. 4800). After a 20 minute incubation period to allow maximum colour development, the colour reaction is stopped by the addition of sulphuric acid (0.2M, 120 μl). This produces a colour change from blue to yellow, and the absorbances are read at 450 nm. A standard curve is then constructed and the IC50 calculated as the AKB48 concentration which produces 50% inhibition of maximal signal. This process was repeated for synthetic cannabinoid members as stated in Table 2 to assess cross-reactivity.
# The cross-reactivity (CR) was calculated using the equation below. All calculations were based upon binding and displacement at the 50% of maximum OD (optical density) binding point. The maximum OD is the signal generated using tracer alone and 50% displacement (inhibition) corresponds to the IC50. […]
# The extent of antibody binding to synthetic cannabinoids of various families was assessed (Table 2). For the cross-reactants with IC50 values, standard curves were derived for each analyte (as per AKB48 and Table 1). […] In all cases, the cross-reactivity set out in Table 2 was measured using an antibody derived from the immunogen of Example 9 and Tracer 1 of Example 10.
smiles,measurement,setting,value
"CCCCCn1cc(C(=O)NC23CC4CC(CC(C4)C2)C3)c2ccccc21 [AKB48, N-(1-adamantyl)-1-pentyl-1H-indole-3-carboxamide]",Average OD (A450),AKB48 concentration 0.25 ng/ml,1.470
same,Average OD (A450),AKB48 concentration 0.74 ng/ml,1.159
same,Average OD (A450),AKB48 concentration 2.22 ng/ml,0.835
same,Average OD (A450),AKB48 concentration 6.67 ng/ml,0.434
same,Average OD (A450),AKB48 concentration 20.00 ng/ml,0.206
